Assay results reported in publication PMC5605198, “MELK is not necessary for the proliferation of basal-like breast cancer cells” (eLife, 2017).

Key:
[1] = system: kinases (KINOMEscan panel); test: KINOMEscan kinase panel profiling, S(35) score; format: binding
141 kinases = test: ICKP panel radiometric kinase profiling (summary); format: biochemical; details: 1 μM

SMILES | S(35) score ([1]; 1 μM, 456 kinases) | % of the kinases inhibited over 90% (141 kinases) [%] | S(35) score ([1]; 10 μM, 353 kinases)
CN(C)C[C@H]1CC[C@H](N2C(=O)NCc3cnc4ccc(-c5cc(Cl)c(O)c(Cl)c5)cc4c32)CC1 [HTH-01-091, 9-(3,5-dichloro-4-hydroxyphenyl)-1-(trans-4-((dimethylamino)methyl)cyclohexyl)-3,4-dihydropyrimido[5,4 c]quinolin-2(1H)-one] | 0.16 | 4 | –
O=c1ccc2cnc3ccc(-c4ccc(O)cc4)cc3c2n1-c1ccc(N2CCNCC2)c(C(F)(F)F)c1 [JW-7-25-1] | – | – | 0.54
CC(=O)c1cnc2ccc(-c3cc(Cl)c(O)c(Cl)c3)nc2c1N[C@H]1CC[C@H](CN(C)C)CC1 [OTSSP167] | – | 67 | –
